PubChem BioAssay AID1259254 | NCATS – 2017

Screen: 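Finding genes that stop cells copying their DNA twice in one cycle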 (primary screen)
Cells: human HCT116 colorectal cancer cells
Reagent: single siRNA against human genes
Time to read-out: 3 days
Measured: 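Imaged Hoechst DNA stain sorts each cell into a cycle phase by DNA amount; per plate, G2 fraction set to 0% for non-targeting and 100% for GMNN siRNA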
Reading the numbers: G2 robust z-score and G2 cells, % of GMNN control: higher = more G2 cells, more excess DNA replication; raw share of cells in G2: higher = larger share of cells with G2 DNA content
Call rule: 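An siRNA counts as active if its G2 robust z-score lies at least 5 MADs above the screen median; here such calls match roughly 38% of GMNN control or more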
The deposit covers about 59,000 reagents; this is a part drawn at random. In the full data, about 1,550 (2.6%) are marked active. 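G2 share is only a proxy for re-replication; each gene was hit by three separate siRNAs, and active genes were retested.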 Raw values are not corrected between plates. Reagents against one gene are numbered here. Reagent sequences are not shown. The record does not give: the amount of reagent.

| gene knocked down | reagent | G2 robust z-score | G2 cells, % of GMNN control | raw share of cells in G2 (%) | call |
| --- | --- | --- | --- | --- | --- |
| LIPK | 1 | -0.0336 | 2.73 | 4.68 | inactive |
| LIPK | 2 | -0.147 | 1.93 | 3.97 | inactive |
| LIPK | 3 | 1.04 | 10.3 | 6.14 | inactive |
| PTDSS1 | 1 | -0.0353 | 2.72 | 4.13 | inactive |
| PTDSS1 | 2 | 1.26 | 11.8 | 9.56 | inactive |
| PTDSS1 | 3 | 3.07 | 24.6 | 14.5 | inactive |
| ODF1 | 1 | -0.477 | -0.387 | 3.07 | inactive |
| ODF1 | 2 | 0.542 | 6.78 | 7.77 | inactive |
| ODF1 | 3 | -0.673 | -1.76 | 4.03 | inactive |
| NAT10 | 1 | 4.38 | 33.8 | 21.2 | inactive |
| NAT10 | 2 | -0.294 | 0.9 | 4.76 | inactive |
| NAT10 | 3 | 2.81 | 22.7 | 13.8 | inactive |
| ATP6V0E2-AS1 | 1 | -0.753 | -2.33 | 2.96 | inactive |
| ATP6V0E2-AS1 | 2 | -0.0876 | 2.35 | 4.45 | inactive |
| ATP6V0E2-AS1 | 3 | -0.435 | -0.091 | 4.75 | inactive |
| RBM46 | 1 | -0.454 | -0.226 | 3.52 | inactive |
| RBM46 | 2 | 2.01 | 17.1 | 8.7 | inactive |
| RBM46 | 3 | -0.476 | -0.383 | 2.64 | inactive |
| SEPTIN6 | 1 | -0.327 | 0.663 | 6.64 | inactive |
| SEPTIN6 | 2 | 1.06 | 10.4 | 7.44 | inactive |
| SEPTIN6 | 3 | 0.297 | 5.06 | 5.85 | inactive |
| CCDC174 | 1 | -0.764 | -2.41 | 2.93 | inactive |
| CCDC174 | 2 | 0.22 | 4.52 | 6.26 | inactive |
| CCDC174 | 3 | 2.11 | 17.8 | 8.86 | inactive |
| TLR9 | 1 | 5.81 | 43.8 | 25.8 | active |
| TLR9 | 2 | 3.21 | 25.6 | 13.7 | inactive |
| TLR9 | 3 | 1.84 | 15.9 | 9.91 | inactive |
| RPTN | 1 | 0.392 | 5.73 | 6.33 | inactive |
| RPTN | 2 | -0.342 | 0.561 | 3.28 | inactive |
| RPTN | 3 | -0.897 | -3.34 | 1.37 | inactive |
| ST6GALNAC6 | 1 | 0.266 | 4.84 | 5.66 | inactive |
| ST6GALNAC6 | 2 | 2.45 | 20.2 | 11.7 | inactive |
| ST6GALNAC6 | 3 | 0.789 | 8.52 | 9.82 | inactive |
| FAM90A27P | 1 | 0.322 | 5.23 | 5.75 | inactive |
| FAM90A27P | 2 | -0.586 | -1.16 | 2.79 | inactive |
| FAM90A27P | 3 | -0.431 | -0.0635 | 3.02 | inactive |
| ZNF354B | 1 | 0.151 | 4.03 | 4.48 | inactive |
| ZNF354B | 2 | 0.35 | 5.43 | 5.05 | inactive |
| ZNF354B | 3 | 2.21 | 18.5 | 10 | inactive |
| SPINT2 | 1 | 1.71 | 15 | 12.2 | inactive |
| SPINT2 | 2 | 2.66 | 21.6 | 10.8 | inactive |
| SPINT2 | 3 | -0.327 | 0.665 | 6.74 | inactive |
| RSBN1 | 1 | -0.713 | -2.05 | 2.87 | inactive |
| RSBN1 | 2 | -0.325 | 0.68 | 4.56 | inactive |
| RSBN1 | 3 | -0.508 | -0.603 | 2.99 | inactive |
| SHROOM2 | 1 | 1.94 | 16.6 | 11.3 | inactive |
| SHROOM2 | 2 | -0.146 | 1.94 | 5.44 | inactive |
| SHROOM2 | 3 | 0.871 | 9.1 | 7.93 | inactive |
| PSMB9 | 1 | 2.21 | 18.5 | 12 | inactive |
| PSMB9 | 2 | 0.404 | 5.81 | 6.97 | inactive |
| PSMB9 | 3 | -0.0958 | 2.29 | 4.77 | inactive |
| SLC9B1 | 1 | 0.493 | 6.44 | 5.99 | inactive |
| SLC9B1 | 2 | -0.16 | 1.84 | 3.48 | inactive |
| SLC9B1 | 3 | 0.975 | 9.83 | 6.49 | inactive |
| PDPR | 1 | -0.306 | 0.812 | 4.67 | inactive |
| PDPR | 2 | 7.51 | 55.8 | 24.4 | active |
| PDPR | 3 | 8.49 | 62.7 | 33.9 | active |
| CCDC42 | 1 | 2.05 | 17.4 | 9.67 | inactive |
| CCDC42 | 2 | 0.132 | 3.9 | 4.12 | inactive |
| CCDC42 | 3 | -0.654 | -1.63 | 2.5 | inactive |
| SNX21 | 1 | -0.67 | -1.75 | 3.34 | inactive |
| SNX21 | 2 | -0.0408 | 2.68 | 3.84 | inactive |
| SNX21 | 3 | 0.607 | 7.24 | 5.22 | inactive |
| KRTAP20-1 | 1 | 4.12 | 32 | 15 | inactive |
| KRTAP20-1 | 2 | 0.735 | 8.14 | 6.82 | inactive |
| KRTAP20-1 | 3 | 1.12 | 10.9 | 8.57 | inactive |
| TMEM14C | 1 | -1.03 | -4.29 | 2.07 | inactive |
| TMEM14C | 2 | -0.326 | 0.677 | 4.56 | inactive |
| TMEM14C | 3 | -0.182 | 1.69 | 3.75 | inactive |

Hits, among the entries above:
| gene knocked down | reagent | G2 robust z-score | G2 cells, % of GMNN control | raw share of cells in G2 (%) | call |
| --- | --- | --- | --- | --- | --- |
| TLR9 | 1 | 5.81 | 43.8 | 25.8 | active |
| PDPR | 2 | 7.51 | 55.8 | 24.4 | active |
| PDPR | 3 | 8.49 | 62.7 | 33.9 | active |
